# Test results from patent US20230203182A1.
# Residue numbers refer to the chain shown, from its start. These are yes or no findings as the source states them, for the method shown. Some entries that bind do so weakly or less than the wild type.
# B1: RTX-MT clone 148 (antibody, human IgG1, kappa, V domains shown)
# VH: QVQLQQPGAELVKPGASVKMSCKASGYTFTSYNMHWVKQTPGRGLEWIGAIYPGNGDTSYNQKFKGKATLTADKSSSTAYMQLSSLTSEDSAVYYCARSTYFGGDWYFNVWGAGTTVTVSA
# VL: QIVLSQSPAILSASPGEKVTMTCRASSSVSYIHWFQQKPGSSPKPWIYATSNLASGVPVRFSGSGSGTSYSLTISRVEAEDAATYYCQQWTSNPPTFGGGTKLEIKR
# B2: RTX-MT clone 199 (antibody, human IgG1, kappa, V domains shown)
# VH: B1 VH with F102Y, F108L
# VL: B1 VL
# B3: RTX-MT clone 198 (antibody, human IgG1, kappa, V domains shown)
# VH: B1 VH with F102Y, Y107C
# VL: B1 VL
# B4: RTX-MT clone 164 (antibody, human IgG1, kappa, V domains shown)
# VH: B1 VH with F102Y, G103C
# VL: B1 VL
# Target: human CA125/MUC16 protein (human) (UniProt Q8WXI7)
# Assay: ELISA, CA125-coated wells, biotinylated antibody
row,binding,Binder
1,binds,B1
2,binds,B2
3,binds,B3
4,binds,B4
